Test results: paper PMC7816512

T1: FLAG-HA-Rbm10 (S. pombe) (UniProt P87143)
T1 sequence: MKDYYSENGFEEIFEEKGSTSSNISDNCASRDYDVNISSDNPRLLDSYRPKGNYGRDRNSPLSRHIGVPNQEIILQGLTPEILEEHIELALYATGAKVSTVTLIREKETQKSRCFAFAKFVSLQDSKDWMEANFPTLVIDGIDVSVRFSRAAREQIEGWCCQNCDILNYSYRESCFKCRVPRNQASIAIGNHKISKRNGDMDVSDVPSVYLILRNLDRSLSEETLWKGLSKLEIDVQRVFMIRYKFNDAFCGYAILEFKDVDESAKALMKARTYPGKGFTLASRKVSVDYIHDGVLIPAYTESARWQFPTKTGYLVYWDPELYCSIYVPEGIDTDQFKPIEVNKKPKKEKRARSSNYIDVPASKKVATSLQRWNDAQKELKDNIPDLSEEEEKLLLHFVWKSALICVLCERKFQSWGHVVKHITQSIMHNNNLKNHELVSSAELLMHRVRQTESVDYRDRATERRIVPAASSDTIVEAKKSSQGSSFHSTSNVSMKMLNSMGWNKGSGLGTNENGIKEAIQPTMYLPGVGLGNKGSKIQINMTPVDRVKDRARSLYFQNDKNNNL

B1: Prp5 (protein, UniProt O13615 1-473)
chain: MTEAKNISDDTDVLSLTTNSLRTSKTLFGAEFGSVTSFDDTVAQNLKRTYKEHLEYGSVLGGTVGKRKNRHYEEDTIGSNALTVRADSENPSSQVITKFSDPNKKIAGQVSMQSLEKIKGVPEAAHRIAGESQASLVKRTLAEQIRPEWHAPWTLMRVISGHLGWVRCVDVEPGNQWFCTGAGDRTIKIWDLASGVLKLTLTGHIATVRGLAVSPRHPYLFSCGEDKMVKCWDLETNKVIRHYHGHLSGVYALKLHPTLDVLVTAGRDAVARVWDMRTRQNVHVLSGHKSTVASLAVQEFDPQVVTGSMDSTIRLWDLAAGKTLTTLTHHKKTVRALSLHPDEFTFASGSSDNIKHWKFPEGAFMGNFEGHNAIVNTLSINSDNVMFSGADNGSMCFWDWKSGHKYQELQSVVQPGSLDSEAGIFASSFDKTGLRLITCEADKSVKIYKQVDNATPETHPNLPWTPSNLRRRY
B2: Rsd1 (protein, UniProt O13845 1-603)
chain: MQLDAEALAEAPFRKQEVPQNQENQQKASSSFHESSLTSSTHSHPSNPPPPPTRLHDRSFKPVSKNYESEGRLTPPPVSMGYRYARSSKQSFQREDSGYNDDVVTNSSSHRTPRHHRRSYSPRSDYGSRSPSPHSSVDSHQSRSPVRSRDRDRSSRSSRSRHPSSRSRHRYDDYSRSPPYSSRHSRSRRRYEERSSRSSRAHDYDYEDLRDDDRSHERKRSRSRPRERSSKLSEEERDRRTVFVSQLANRLTSRELYDFFEQAGPVRDAQIVRDKISGRSKGVAYVEFCHEDSVQAAIALSGKRLLGLPVIVQLTEAEKNRKAREAAELARAASAEIPFHRLCVSNIHFNLTDEDVKAIFEPFGDIEFVHLQRDDQNRSKGFGYIQYRNPISARNALEKMNGFDLAGRNMRVCLGNDKFTTETTSSMLKRFDETLARQERSQPSQRNGGSSTYESQDYREAAPLSPTEEESRPITRDELMKKLARSEDISDNSKLVSEPEPPIRSRCALLENMFNPAEETSPNWVQELEQDVKEECDEKYGKVVHIAVVPNELGQIFVKFENADFAEKAITGLHQRWFGGRTIKASILPETDYYFKFPNAKTA
B3: Sap114 (protein, UniProt O13900 1-481)
chain: MSSLMEFQDRNTTNNETEHQKSITDQSSSVPAGVILPPPAIREIIDKSASYVARNGPAFEEKIRQNEQANTKFAFLHANDPYHPYYQHKLTEAREGKLKSHATGLSTQKTSTLARPIQKPIEATIPAPSPYLFSEPLPSISSLDLDVLRLTARYAAVRGSSFLVSLSQKEWNNTQFDFLKPNNALYPYFMRIVQQYTSLIREPISSPEQELRENVRDPYSLLSKIQPRVRWQSHMESQKKKQKEEAEKEKLEYAQIDWNDFVVVEVIQFTKSDEHAKLAKPTNLADLQTATLEQKSAMFTMPDQNYTIEEAPPTAEPWEPISAPKKQEFGVSLPPSLASPEKGGISSTTSVSPAAQASPVLSTTTQPKVQKPVPKAFQPKVPMEISPFSGELVPATELEEHMRLKLLDPRWQEQRKVEESRKSTLNLENVNVAANMKRLVSQRTDLFDVQNGVEISQEEIERRKRAATQSAWGATPTNKRR
B4: Asf1/Cia1 (protein, UniProt O74515 1-262)
chain: MSIVNILSVNVLNNPAKFSDPYKFEITFECLEPLKSDLEWKLTYVGSATSQSYDQILDTLLVGPIPIGINKFVFEADPPNIDLLPQLSDVLGVTVILLSCAYEDNEFVRVGYYVNNEMEGLNLQEMDDAEIKKVKVDISKVWRSILAEKPRVTRFNIQWDNPDFDDAPPVQPDADEEEEEEEADEMEEEFDEEGEGDEEEEEEDDGDGDGEGDGDGEGENDGKGSEEEEEEEIDIEEEEEESALANASAAEEKPEEKPETSQ
B5: Sap145 (protein, UniProt Q9UUI3 1-585)
chain: MAEIQTAQNPLKELEKILERNNKQKNKKSRNQVRREKKKLLREKTNSGAKLAEKNSDDKDQLTENNDNLYNDKKSNGNFYDTNKTDSVDGMVYTTIVDSVELDPNDPLIEQFKDVFNRFKADGQEKDFEDTDKGQIMYSDDEILSEGEEDALQKQQEEKLSKKKLRKLKRMTVAQLKMLSEKADVVEWWDVSSLDPLFLTHLKAYPNTVPVPRHWNQKRDYLSGQRGIERQLFELPSYIRATGIVQMRNAVHENEADMPLRQKMRERVQPKMGKLDIDYQKLHDAFFRYQTKPVLTGFGECYFEGKELEADVKEKRPGDISEELREALGIAPGAPPPWLFAMQRYGPPPSYPDLKIPGVNCPIPTGAQWGFHPGGWGKPPVDQFNRPLYGDVFGNVKPRIHAGTGSPVSTQHWGELEEFEEEESSEEEESEDVEYPTEEITERETIEEYQSASEPRSQREDLHAEPLTYFNQSNVEVDNVELRKNTQPSSDAANRDLYQVLPEKSTNISGFMGPQHQYDIPTAEDTLPQKRNAHSMLSSTNKGDVALNQSSNWQDELSELVSEQAMKVGAAKRQKTQSKRDKFRL
B6: Sap61 (protein, UniProt O59706 1-492)
chain: MSESVLETERYAHEELERLQQAIVDRQVANPKAPRERLRLEHQSAQFLNQFRETSKKLLVSHESSDRLKDQEVARINADDDLTEFYKSLGEIQEFHKKYPDHKVEDLSQLYSIKPSQPGIDEIDTLFRGEEMYGRFMDLNECYEEYINLSNVQHISYLEYLKNLEDFDQIPKPEKNQTYINYITHLYEYLVSFYRRTHPLSNLDKIIAVFDTEFDAAWEAGLPGWYSHNAEAEKDGKDSTEAFYCEVCQKFFGKITVFEAHKKSKAHNKAVKRMQSSSPSTTSNTNEKQKGPKAIARIEFLIKKLTSLLDDVRKDTRENVVRRQTLTAAERLAEVEAAEREAFEQSTPSVSVEGNQDEESDQDDEEKIYNPLKLPLGWDGKPIPFWLWKLHGLGKEFPCEICGNYVYMGRKAFDKHFTEQRHIYGLKCLGISPSPLFNQITSIDEALQLWQKYKVDSKKRETTMASLNEMEDDEGNVMSEKVYNDLKAQGLL
B7: Spt6 (protein, UniProt Q09915 1-1365)
chain: MSENEVVGSPTTNGDKNEDGYPAENGEGTNVDDNNNEEEKDGIPLDNDNDENDSSEESATDEEAERQVREGFIVEDEEDEVPQEIRRKKKRKKHAESTADQDMLDEEDLELVMENTGQGSRFSKLRRLKRGRDQEETLENIFSEEEEEEENEVDDEAPNRTQGHRAGVIDEFADFIEQDEFEDEERQEEKYETGPPIESVRPEALGISDDDYIQIYEVFGDGTDYAFALEDEDAEDELEESVSLKTIFEPSELKDKMLTEEDEIIRITDEPERMQLYMKRNIDCSEDEFREQVAWIIDYLLKNRRDIDAELYEPFQTAVRYVVHFFIRDSLEVPFIWQHRRDYIVHNNRERNTITPLLSQNDLWNIFFLCTKFWSLHSKKQDILKLYSDLGINDDLVVPFCEAASSLDAIDDLNDYIHFTYSEQIRDRALLMGTGLRRPQGSKYSFFEKFRKSSLYNLVKEFGMSAKDFSFNVAQGARLRFVEDNTLSPEELSRTYVTNELSSPEQVLQKARRVLAEEIIHDPQFRKSFRDKLYNAGVVTVLATQKGVRKIGSEHPYYEFKYLKRKPLGSFELEPILFLKMLKAEEEGLIQLSIEFEDPDDVFKGLLELFVSDNFSENAMQWNAQRELVLKEVFKRFSALAPDAIRETLRSRYLDELGMRCRNQLFSRLDQAPYEPSTKNFDRGTIPSVLAVSNGKGESSDAIICVFVDDVGEPTDSLKLADLRDLANQAMFAEFVEKVKPDVIGVSGMSVSAHKIRQHVQDSLTSHEPVDLIMVNDEVARLYQNSTRAVDEFPTLPTISCYCVALARYVQNPLFEYAAMGRDLMSLSFDPWQHLLPPDVLWKYLETALVDISSLVGIDINEAVTNKYEANILPYIAGLGPRKADYVLKKIAATGGRIDNRSDLISKQIMSRKVFINCSSFFIIPNDEYPNMDILDSTRIHNEDYELARKMASDALELDEEDIEELETNRGVVYHLLEENETGKLDELVLEEYADQLEREFHQKKRNTLEKIRLELKDPYGEQRNVFHKLTPSEIFLMLTGENPEELQADAIVPVNVRRVTNRFVAVKLDCGIDGNIKADEVSDDFIPPPQLLQVGQTVEGVIISLDEANFMVDLSLRNSVLQSANSKRQTSSHRTSYWDTEAEKRDTERMQAETQAEQRVARVIKHPLFKDLNASQAEAYLSKMQVGDLVIRPSSKGSDHIVVTWKVAEGSYQHIDVLELEKENEFTIGQKLLVKGRFEKMTYQYSDLDELIVLHIKAIAKKIDEMCIHDKFRKGTQAETEKWLESYSEANPKRSCYAFCFDHQHPGYFILCFKASVNSPVTAWPVKVIPNAFFLQGNVYGDMTALCNGFKLLYAARTKNFRRM

The binders below were run against T1, FLAG-HA-Rbm10 (S. pombe) (assay: affinity purification with mass spectrometry; two-step purification (anti-FLAG beads, 3xFLAG peptide elution, then uMACS HA magnetic beads) of overexpressed FLAG-HA-Rbm10 from S. pombe lysate with Benzonase; three independent purifications; control purification from an untagged strain).
B1 was tested, and the binding was “binds”. In the case of B2, the binding is reported as “binds”. For B3, the binding was “binds”. In the case of B4, the binding is reported as “binds”. For B5, the binding was “binds”. For B6, the binding was “binds”. With B7 the binding was “binds”.

No constants are given. Whether binding was seen depends on the method and setting. In cells and extracts the contact can be indirect. A yes stands for co-enrichment or nearness to the bait. Other partners may have been found. Tags and fused reporters may be left off the sequences shown.
